In PMC6581700:
No constants are given. Whether binding was seen depends on the method and setting. In cells and extracts the contact can be indirect. Some entries that bind do so weakly or less than the wild type.

The chains behind the UniProt entries cited, without tags or fusion partners.
UniProt P0C746: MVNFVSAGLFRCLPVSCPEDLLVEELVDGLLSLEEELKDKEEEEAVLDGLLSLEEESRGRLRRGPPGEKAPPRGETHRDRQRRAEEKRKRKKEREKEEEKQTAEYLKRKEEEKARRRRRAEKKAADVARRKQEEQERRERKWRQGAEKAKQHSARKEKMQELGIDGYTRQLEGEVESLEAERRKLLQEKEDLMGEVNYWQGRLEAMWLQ
UniProt Q04206: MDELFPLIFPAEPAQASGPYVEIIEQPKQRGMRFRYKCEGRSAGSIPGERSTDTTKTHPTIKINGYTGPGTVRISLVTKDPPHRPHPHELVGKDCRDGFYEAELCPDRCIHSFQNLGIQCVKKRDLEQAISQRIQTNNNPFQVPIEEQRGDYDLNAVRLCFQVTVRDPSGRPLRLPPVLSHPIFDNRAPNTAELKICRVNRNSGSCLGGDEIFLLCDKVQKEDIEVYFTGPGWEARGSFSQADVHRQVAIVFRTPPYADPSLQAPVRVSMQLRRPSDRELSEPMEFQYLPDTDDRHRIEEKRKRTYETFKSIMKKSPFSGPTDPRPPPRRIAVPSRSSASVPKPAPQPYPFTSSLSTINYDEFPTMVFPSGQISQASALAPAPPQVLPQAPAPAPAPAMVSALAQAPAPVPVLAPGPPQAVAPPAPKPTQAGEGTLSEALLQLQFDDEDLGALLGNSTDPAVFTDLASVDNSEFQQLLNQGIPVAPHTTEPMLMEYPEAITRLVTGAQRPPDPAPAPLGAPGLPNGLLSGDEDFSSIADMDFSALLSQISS

What follows are molecules tested against Flag-HBZ (HTLV-1 bZIP factor) (HTLV-1) (UniProt P0C746) (assay: co-IP; HEK293T cells transfected with 1 ug of each expression vector, harvested after 24 h; lysed in 10 mM Tris-HCl pH 7.5, 5 mM EDTA, 150 mM NaCl, 1% Triton X-100; Flag-tagged protein precipitated with anti-Flag antibody overnight at 4°C on Dynabeads Protein G or A; partner detected by western …).

Molecule | binding
Tax-1 (from UniProt P03409 1-353) | no binding
p65/RelA (from UniProt Q04206 1-551) | binds
p52 (protein, UniProt Q00653 1-454) MESCYNPGLDGIIEYDDFKLNSSIVEPKEPAPETADGPYLVIVEQPKQRGFRFRYGCEGPSHGGLPGASSEKGRKTYPTVKICNYEGPAKIEVDLVTHSDPPRAHAHSLVGKQCSELGICAVSVGPKDMTAQFNNLGVLHVTKKNMMGTMIQKLQRQRLRSRPQGLTEAEQRELEQEAKELKKVMDLSIVRLRFSAFLRASDGSFSLPLKPVISQPIHDSKSPGASNLKISRMDKTAGSVRGGDEVYLLCDKVQKDDIEVRFYEDDENGWQAFGDFSPTDVHKQYAIVFRTPPYHKMKIERPVTVFLQLKRKRGGDVSDSKQFTYYPLVEDKEEVQRKRRKALPTFSQPFGGGSHMGGGSGGAAGGYGGAGGGGSLGFFPSSLAYSPYQSGAGPMGCYPGGGGGAQMAATVPSRDSGEEAAEPSAPSRTPQCEPQAPEMLQRAREYNARLFGLA | binds
